# Measured data: PubChem BioAssay AID1259425 (University of Nebraska Medical Center, 2018)
# Purpose: 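Compare each knockdown with KSR1 silencing using changes in marker transcripts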 (primary screen)
# System: HCT116 human colon cancer cells
# Reagents: siRNA pool against human genes, 50 nM siRNA
# Measured: 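mRNA of six signature genes measured together by branched-DNA assay after 50 nM siRNA pool, blank removed, divided by geometric mean of two housekeeping genes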
# Direction: BNIP3L mRNA: higher = more BNIP3L transcript after knockdown; NDRG1 mRNA: higher = more NDRG1 transcript after knockdown; BNIP3 mRNA: higher = more BNIP3 transcript after knockdown
# The deposit covers about 14,000 reagents; below is a part drawn at random. A reagent listed more than once was tested more than once; the source does not tell the runs apart. Not all columns of the deposit are shown. Reagent sequences are not shown. The record does not give: the time to read-out.
target,"BNIP3L mRNA, set 1","NDRG1 mRNA, set 1","BNIP3 mRNA, set 1"
CCDC28A (coiled-coil domain containing 28A),0.0932,0.126,0.443
ATP11A (ATPase phospholipid transporting 11A),0.0676,0.301,0.348
AFP (alpha fetoprotein),0.0942,0.288,0.288
OR5L2 (olfactory receptor family 5 subfamily L member 2),0.182,0.603,0.678
VPS16 (VPS16 core subunit of CORVET and HOPS complexes),0.0798,0.106,0.366
TSC1 (TSC complex subunit 1),0.0849,0.0791,0.36
CLCC1 (chloride channel CLIC like 1),0.108,0.161,0.186
IL20 (interleukin 20),0.107,0.211,0.33
CES1 (carboxylesterase 1),0.143,0.17,0.255
ALDH6A1 (aldehyde dehydrogenase 6 family member A1),0.0776,0.135,0.233
LPAR3 (lysophosphatidic acid receptor 3),0.236,0.0557,0.366
PIGN (phosphatidylinositol glycan anchor biosynthesis class N),0.125,0.46,0.631
ARF1 (ARF GTPase 1),0.197,0.215,0.283
MTSS1 (MTSS I-BAR domain containing 1),0.156,0.258,0.293
CDKL1 (cyclin dependent kinase like 1),0.0867,0.181,0.458
PNKD (PNKD metallo-beta-lactamase domain containing),0.142,0.144,0.38
CIDEB (cell death inducing DFFA like effector b),0.0512,0.138,0.302
CORO1C (coronin 1C),0.0779,1.24,0.447
RASD1 (ras related dexamethasone induced 1),0.0884,0.155,0.226
HSPB1 (heat shock protein family B (small) member 1),0.0614,0.117,0.189
IL1RAPL1 (interleukin 1 receptor accessory protein like 1),0.0584,0.0665,0.175
MATCAP2 (microtubule associated tyrosine carboxypeptidase 2),0.227,0.235,0.335
WWOX (WW domain containing oxidoreductase),0.119,0.0909,0.196
NLGN4Y (neuroligin 4 Y-linked),0.16,0.23,0.336
"RAB3D (RAB3D, member RAS oncogene family)",0.0958,0.0739,0.38
THAP7 (THAP domain containing 7),0.192,0.938,0.445
RAMAC (RNA guanine-7 methyltransferase activating subunit),0.101,0.187,0.311
NDEL1 (nudE neurodevelopment protein 1 like 1),0.116,0.128,0.31
SPIC (Spi-C transcription factor),0.202,0.132,0.306
RIC8A (RIC8 guanine nucleotide exchange factor A),0.152,0.0636,0.324
OR10A3 (olfactory receptor family 10 subfamily A member 3),0.114,0.22,0.33
ANXA9 (annexin A9),0.117,0.127,0.272
CLDN15 (claudin 15),0.0813,0.294,0.597
ACSBG2 (acyl-CoA synthetase bubblegum family member 2),0.07,0.573,0.296
CALB2 (calbindin 2),0.216,0.505,0.377
GRM7 (glutamate metabotropic receptor 7),0.105,0.153,0.439
"LUC7L2 (LUC7 like 2, pre-mRNA splicing factor)",0.229,0.545,0.55
MYH6 (myosin heavy chain 6),0.161,0.567,0.413
ZNF141 (zinc finger protein 141),0.145,0.277,0.272
STIM1 (stromal interaction molecule 1),0.104,0.364,0.231
C1RL (complement C1r subcomponent like),0.274,0.483,0.343
NPR2 (natriuretic peptide receptor 2),0.0693,0.156,0.198
NPR2 (natriuretic peptide receptor 2),0.154,0.277,0.25
MPHOSPH6 (M-phase phosphoprotein 6),0.286,0.347,0.699
YAF2 (YY1 associated factor 2),0.106,0.134,0.252
CRHR1 (corticotropin releasing hormone receptor 1),0.218,0.106,0.317
PELI1 (pellino E3 ubiquitin protein ligase 1),0.142,0.271,0.401
WDR82 (WD repeat domain 82),0.24,0.391,0.497
ZNF133 (zinc finger protein 133),0.0783,0.341,0.279
CA1 (carbonic anhydrase 1),0.118,0.19,0.266

Single entries from above:
RASD1 (ras related dexamethasone induced 1), BNIP3 mRNA, set 1 = 0.226
VPS16 (VPS16 core subunit of CORVET and HOPS complexes), BNIP3L mRNA, set 1 → 0.0798
ANXA9 (annexin A9), BNIP3L mRNA, set 1: 0.117
Under “NDRG1 mRNA, set 1”, PELI1 (pellino E3 ubiquitin protein ligase 1) reads 0.271
For “BNIP3 mRNA, set 1”, TSC1 (TSC complex subunit 1) is entered as 0.36
CLDN15 (claudin 15), BNIP3 mRNA, set 1 = 0.597
